Here are results for one substance from publication doi:10.1101/2021.09.20.461090.

No constants are given. Whether binding was seen depends on the method and setting. Some binding calls cover weakened binding; strength is not graded here.

This experiment deals with P22 phage tailspike protein (P22 phage) (UniProt P12528). The experiment in a line: SDS-PAGE after heating.

On to “P22 phage tailspike protein (from UniProt P12528 1-667)”, for which the binding entry is reported as “binds”.
